Some of the results follow.

Chains of the proteins cited; added tags and fusions are not shown. Lines headed by an entry give the natural chain unless they say otherwise; changes in a name come on top.
UniProt Q96GJ1: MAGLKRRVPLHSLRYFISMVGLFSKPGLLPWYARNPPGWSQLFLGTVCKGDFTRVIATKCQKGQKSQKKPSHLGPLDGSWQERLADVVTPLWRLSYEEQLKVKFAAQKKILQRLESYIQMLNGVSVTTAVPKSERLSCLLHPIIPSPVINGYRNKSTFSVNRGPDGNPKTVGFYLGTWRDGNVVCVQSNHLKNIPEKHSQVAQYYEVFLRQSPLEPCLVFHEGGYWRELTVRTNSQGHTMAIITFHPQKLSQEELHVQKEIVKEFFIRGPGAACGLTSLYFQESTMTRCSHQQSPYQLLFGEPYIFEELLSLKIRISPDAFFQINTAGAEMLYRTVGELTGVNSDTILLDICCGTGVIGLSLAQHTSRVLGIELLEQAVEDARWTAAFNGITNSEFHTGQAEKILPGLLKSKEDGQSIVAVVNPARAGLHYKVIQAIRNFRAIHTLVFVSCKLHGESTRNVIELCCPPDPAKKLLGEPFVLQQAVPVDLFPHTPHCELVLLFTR
UniProt Q92574: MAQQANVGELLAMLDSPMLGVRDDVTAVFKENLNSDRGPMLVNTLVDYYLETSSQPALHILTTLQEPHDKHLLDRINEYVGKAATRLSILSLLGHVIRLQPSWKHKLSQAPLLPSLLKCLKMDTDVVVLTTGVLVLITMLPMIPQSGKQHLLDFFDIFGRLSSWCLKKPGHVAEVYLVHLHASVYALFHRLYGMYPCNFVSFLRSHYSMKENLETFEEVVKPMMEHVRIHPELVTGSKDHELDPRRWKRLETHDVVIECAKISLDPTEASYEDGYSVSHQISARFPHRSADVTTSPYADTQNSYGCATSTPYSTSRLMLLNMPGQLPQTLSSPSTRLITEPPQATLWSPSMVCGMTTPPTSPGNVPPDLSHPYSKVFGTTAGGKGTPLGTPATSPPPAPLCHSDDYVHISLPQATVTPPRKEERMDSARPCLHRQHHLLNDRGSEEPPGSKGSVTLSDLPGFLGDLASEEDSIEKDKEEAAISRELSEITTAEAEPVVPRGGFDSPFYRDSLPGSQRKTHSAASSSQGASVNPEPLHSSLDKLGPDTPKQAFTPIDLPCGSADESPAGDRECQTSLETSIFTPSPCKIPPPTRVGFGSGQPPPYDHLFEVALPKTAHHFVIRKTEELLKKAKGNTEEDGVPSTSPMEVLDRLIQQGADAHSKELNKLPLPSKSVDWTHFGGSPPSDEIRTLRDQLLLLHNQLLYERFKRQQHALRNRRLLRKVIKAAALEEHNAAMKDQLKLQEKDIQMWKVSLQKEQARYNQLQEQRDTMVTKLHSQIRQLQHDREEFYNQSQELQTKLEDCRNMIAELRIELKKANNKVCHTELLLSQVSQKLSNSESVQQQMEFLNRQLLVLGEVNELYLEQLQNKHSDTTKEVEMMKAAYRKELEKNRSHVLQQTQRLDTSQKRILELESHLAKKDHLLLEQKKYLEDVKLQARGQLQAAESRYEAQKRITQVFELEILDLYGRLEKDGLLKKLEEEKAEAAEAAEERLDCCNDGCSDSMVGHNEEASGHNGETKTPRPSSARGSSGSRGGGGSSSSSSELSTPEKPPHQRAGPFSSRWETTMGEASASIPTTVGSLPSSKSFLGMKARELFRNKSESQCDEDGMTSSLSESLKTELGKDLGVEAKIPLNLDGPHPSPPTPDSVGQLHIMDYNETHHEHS
UniProt Q15642: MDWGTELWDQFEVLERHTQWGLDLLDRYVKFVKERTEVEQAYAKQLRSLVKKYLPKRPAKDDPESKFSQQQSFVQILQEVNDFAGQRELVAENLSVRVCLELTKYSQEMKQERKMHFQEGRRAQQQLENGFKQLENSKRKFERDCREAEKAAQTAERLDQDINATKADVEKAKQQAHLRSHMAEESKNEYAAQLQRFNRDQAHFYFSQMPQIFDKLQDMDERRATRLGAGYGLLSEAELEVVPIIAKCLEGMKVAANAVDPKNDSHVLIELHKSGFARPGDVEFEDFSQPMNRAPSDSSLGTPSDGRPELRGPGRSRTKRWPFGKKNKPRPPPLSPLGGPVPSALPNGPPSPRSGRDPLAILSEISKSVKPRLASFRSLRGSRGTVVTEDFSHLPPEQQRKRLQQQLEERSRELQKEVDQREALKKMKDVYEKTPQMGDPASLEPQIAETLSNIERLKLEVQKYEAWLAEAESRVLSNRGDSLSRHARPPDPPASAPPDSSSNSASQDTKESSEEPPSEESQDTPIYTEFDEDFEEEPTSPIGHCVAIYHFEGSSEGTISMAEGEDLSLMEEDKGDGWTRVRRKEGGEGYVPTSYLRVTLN
UniProt O43715: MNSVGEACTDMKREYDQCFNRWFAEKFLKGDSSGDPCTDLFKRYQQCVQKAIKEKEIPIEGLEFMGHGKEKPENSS
UniProt Q86TN4: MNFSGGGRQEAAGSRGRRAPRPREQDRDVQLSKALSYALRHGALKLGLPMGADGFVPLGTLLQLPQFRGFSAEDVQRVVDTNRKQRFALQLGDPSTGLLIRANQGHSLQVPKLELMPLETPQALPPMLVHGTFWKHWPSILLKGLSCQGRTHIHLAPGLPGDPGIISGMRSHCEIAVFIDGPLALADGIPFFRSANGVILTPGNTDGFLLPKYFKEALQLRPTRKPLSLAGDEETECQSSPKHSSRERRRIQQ
UniProt Q5BVD1: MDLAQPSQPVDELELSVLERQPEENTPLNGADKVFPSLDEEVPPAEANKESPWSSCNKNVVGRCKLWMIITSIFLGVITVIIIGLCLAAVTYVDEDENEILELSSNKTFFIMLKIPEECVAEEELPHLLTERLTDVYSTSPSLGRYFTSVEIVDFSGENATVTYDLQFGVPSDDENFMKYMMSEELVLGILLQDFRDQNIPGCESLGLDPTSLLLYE
UniProt Q6PJ69: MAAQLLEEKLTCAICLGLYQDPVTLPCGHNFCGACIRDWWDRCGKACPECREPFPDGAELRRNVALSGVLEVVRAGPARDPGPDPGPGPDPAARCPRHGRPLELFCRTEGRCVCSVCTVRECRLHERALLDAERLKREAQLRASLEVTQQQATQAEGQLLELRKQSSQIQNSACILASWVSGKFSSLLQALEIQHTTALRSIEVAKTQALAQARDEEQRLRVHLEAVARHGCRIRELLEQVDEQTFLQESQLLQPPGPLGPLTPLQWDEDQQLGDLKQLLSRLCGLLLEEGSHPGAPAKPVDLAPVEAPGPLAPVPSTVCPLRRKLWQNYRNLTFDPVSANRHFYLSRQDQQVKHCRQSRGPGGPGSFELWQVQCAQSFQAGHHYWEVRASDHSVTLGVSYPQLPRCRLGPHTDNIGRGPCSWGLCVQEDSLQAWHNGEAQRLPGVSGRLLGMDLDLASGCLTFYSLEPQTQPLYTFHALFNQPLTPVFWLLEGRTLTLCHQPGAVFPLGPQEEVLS
UniProt Q5T7W7: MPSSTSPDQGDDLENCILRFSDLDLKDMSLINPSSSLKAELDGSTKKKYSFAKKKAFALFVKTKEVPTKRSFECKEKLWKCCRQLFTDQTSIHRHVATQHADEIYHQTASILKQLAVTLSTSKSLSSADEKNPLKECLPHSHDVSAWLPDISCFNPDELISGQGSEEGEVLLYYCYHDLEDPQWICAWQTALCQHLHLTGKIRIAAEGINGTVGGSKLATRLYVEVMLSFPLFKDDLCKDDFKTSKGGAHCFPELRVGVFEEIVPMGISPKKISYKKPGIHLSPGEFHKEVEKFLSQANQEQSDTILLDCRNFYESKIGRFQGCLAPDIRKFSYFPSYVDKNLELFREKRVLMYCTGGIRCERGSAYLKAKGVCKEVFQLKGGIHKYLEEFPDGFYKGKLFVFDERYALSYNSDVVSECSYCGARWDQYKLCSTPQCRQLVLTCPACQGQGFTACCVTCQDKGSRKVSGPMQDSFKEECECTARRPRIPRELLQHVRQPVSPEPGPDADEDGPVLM
UniProt Q9H2D6: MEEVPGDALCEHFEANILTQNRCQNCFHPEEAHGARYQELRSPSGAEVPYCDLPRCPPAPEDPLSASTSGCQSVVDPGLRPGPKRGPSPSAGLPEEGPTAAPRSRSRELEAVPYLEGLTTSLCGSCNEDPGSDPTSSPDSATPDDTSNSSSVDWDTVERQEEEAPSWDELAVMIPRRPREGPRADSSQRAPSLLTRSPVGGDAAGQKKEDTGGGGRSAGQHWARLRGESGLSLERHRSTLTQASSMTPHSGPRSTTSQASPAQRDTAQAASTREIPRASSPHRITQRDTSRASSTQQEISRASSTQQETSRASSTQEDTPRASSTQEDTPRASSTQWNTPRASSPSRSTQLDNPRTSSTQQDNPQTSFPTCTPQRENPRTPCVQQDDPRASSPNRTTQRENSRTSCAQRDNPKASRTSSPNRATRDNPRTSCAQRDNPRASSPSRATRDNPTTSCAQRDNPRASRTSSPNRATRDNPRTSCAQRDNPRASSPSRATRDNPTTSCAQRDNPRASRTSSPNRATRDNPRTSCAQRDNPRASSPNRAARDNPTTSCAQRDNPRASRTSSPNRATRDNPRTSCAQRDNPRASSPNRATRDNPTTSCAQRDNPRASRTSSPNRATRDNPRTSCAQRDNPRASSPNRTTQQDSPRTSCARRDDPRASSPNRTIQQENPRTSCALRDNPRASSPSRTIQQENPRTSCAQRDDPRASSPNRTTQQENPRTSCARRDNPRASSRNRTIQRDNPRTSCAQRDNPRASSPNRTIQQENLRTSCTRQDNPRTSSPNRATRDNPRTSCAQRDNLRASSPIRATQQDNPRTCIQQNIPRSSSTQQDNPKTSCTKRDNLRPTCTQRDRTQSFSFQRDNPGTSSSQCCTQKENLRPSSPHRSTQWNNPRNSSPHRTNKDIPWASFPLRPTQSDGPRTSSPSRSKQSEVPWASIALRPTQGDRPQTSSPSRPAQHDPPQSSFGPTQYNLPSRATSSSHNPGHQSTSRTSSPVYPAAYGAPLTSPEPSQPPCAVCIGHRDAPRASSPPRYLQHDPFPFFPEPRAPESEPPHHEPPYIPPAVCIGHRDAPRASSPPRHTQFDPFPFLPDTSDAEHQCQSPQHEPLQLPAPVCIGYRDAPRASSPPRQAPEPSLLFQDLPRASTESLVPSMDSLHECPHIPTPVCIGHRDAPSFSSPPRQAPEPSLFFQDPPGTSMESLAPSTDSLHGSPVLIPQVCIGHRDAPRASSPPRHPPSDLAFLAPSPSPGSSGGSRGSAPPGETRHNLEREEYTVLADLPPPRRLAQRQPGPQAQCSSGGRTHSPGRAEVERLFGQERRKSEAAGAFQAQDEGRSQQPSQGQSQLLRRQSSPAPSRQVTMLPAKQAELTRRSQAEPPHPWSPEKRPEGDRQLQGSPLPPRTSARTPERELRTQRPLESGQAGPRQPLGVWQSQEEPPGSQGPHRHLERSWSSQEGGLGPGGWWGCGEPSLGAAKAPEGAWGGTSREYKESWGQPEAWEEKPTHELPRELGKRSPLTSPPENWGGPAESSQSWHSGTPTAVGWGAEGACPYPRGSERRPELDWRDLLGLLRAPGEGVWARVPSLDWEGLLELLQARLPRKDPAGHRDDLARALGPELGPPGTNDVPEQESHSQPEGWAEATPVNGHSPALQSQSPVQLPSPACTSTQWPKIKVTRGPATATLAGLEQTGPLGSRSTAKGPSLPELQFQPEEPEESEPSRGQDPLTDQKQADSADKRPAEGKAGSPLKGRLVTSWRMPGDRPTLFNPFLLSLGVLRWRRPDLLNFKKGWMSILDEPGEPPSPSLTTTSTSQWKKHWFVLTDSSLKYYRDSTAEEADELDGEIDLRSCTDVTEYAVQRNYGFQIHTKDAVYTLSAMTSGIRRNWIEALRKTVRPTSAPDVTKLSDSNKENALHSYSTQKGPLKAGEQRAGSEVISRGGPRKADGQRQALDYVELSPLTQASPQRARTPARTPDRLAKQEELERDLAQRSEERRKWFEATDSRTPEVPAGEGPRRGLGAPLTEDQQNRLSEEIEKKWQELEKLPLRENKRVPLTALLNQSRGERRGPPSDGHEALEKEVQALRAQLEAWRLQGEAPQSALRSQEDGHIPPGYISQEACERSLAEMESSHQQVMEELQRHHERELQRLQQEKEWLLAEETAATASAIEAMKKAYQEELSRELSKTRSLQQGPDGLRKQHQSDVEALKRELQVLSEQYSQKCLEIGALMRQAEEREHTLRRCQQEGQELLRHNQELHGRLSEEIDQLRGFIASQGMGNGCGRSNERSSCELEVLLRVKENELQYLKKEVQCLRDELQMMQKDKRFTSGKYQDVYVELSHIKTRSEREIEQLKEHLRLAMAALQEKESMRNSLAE
UniProt O60637: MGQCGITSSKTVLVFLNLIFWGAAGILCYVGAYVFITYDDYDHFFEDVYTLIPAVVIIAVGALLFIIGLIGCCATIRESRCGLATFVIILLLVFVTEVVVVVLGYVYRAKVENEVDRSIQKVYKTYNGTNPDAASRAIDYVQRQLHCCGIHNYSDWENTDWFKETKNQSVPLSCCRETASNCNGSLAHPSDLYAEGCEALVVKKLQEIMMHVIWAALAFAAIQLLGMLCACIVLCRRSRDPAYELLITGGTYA

Compound in the test: COc1cc2nc(-c3cc(F)ccc3O)nc(N[C@@H]3CNC[C@H]3C(C)(C)O)c2cc1OC
Description: log2 fold change, soluble protein after heating vs DMSO (PISA); higher = thermal stabilisation; K562 lysate, 10 uM; active = over 0.2 and 3.5 SD of the protein, either way, in both replicates (recomputed). Put shortly:
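Dounce homogenisation of K562 pellets in PBS pH 7.4 with 1 mM MgCl2 produced a crude extract, used at 1 mg/mL protein. Exposure to 10 μM compound lasted 30 min, and aliquots were then heated for 3 min across 48°C-58°C, pooled and brought to 0.5% NP-40 at 4°C. The supernatant after 21,000xg for 90 min was quantified by TMTpro 16plex LC-MS/MS with channel sums equalised. Duplicate values are given as log-two fold change in thermal stability relative to solvent controls.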
As to TRMT2B (UniProt Q96GJ1), the log2 fold change is inactive: 0.174. Next, TSC1 (UniProt Q92574): inactive: -0.04; TSPYL1 (UniProt Q9H0U9): inactive: -0.045; TRRAP (UniProt Q9Y4A5): inactive: -0.004. The value for TRPS1 isoform 2 (UniProt Q9UHF7) was inactive: -0.121; that for TRNT1 (UniProt Q96Q11) was inactive: 0.001; that for TRIP10 (UniProt Q15642) was inactive: -0.003.

For the target TRIAP1 (UniProt O43715), the log2 fold change is inactive: -0.003.

TSC22D2 (UniProt O75157): the log2 fold change was inactive: -0.027. TRIM47 (UniProt Q96LD4): the log2 fold change is inactive: 0.122. Next, TRPT1 isoform 4 (UniProt Q86TN4): inactive: 0.121. The value for TRIP10 isoform 2 (UniProt Q15642) was inactive: -0.036; that for TSEN15, A0A2U3TZM3 was inactive: -0.156; that for TTMP isoform 3 (UniProt Q5BVD1) was inactive: 0.129. TRAF3 (UniProt Q13114): the log2 fold change was inactive: 0.013. As to TRIM65 (UniProt Q6PJ69), the log2 fold change is inactive: 0.023. For TSTD2 (UniProt Q5T7W7), the log2 fold change is inactive: -0.01.

In the case of TRPM7 (UniProt Q96QT4), the log2 fold change was inactive: 0.102. Next, TRIOBP (UniProt Q9H2D6): inactive: -0.051. The value for TSPAN3 (UniProt O60637) was inactive: 0.042; that for TRIO (UniProt O75962) was inactive: 0.027.

The record behind these values is the supplement of paper PMC10849652.
